System: guinea pig papillary muscles
Assay: Electrophysiological studies: transmembrane action potentials of isolated papillary muscle
Type: cell-based, Guinea pigs
Protocol: Guinea pigs (300-350 g) were anesthetized by intravenous injection of sodium pentobarbital (60 mg/kg). After thoracotomy the heart was rapidly excised and placed in oxygenated Tyrode solution. Papillary muscles were removed from the right ventricle. Preparations were then fixed to the silastic base of a 5 ml organ bath and superfused with oxygenated Tyrode solution maintained at 37 ± 1 °C.
The solution was equilibrated with a gas mixture of 95% O2 - 5% CO2.
After a stabilisation period (at least 1 h), transmembrane action potentials were recorded with conventional microelectrodes (10 MOhm) connected to a high input impedance amplifier (BIOLOGIC VF 180). External stimuli were delivered to the preparation with bipolar platinum electrodes placed at one end of the muscle. The pulse duration was 1 ms and the amplitude was twice threshold. The basic cycle length was 1000 ms (PULSAR 6i stimulator). The signals were monitored on a storage oscilloscope (GOULD 1602) and simultaneously recorded on a digital tape recorder (BIOLOGIC DTR 1200) for further analysis.
Measurements were made of resting membrane potential (RMP), action potential amplitude (APA) and action potential durations at 30, 50 and 90% repolarization (APD30, APD50 and APD90 respectively). Recordings were made after 30 min of equilibration for each concentration. Only recordings in which the same impalement was maintained throughout the entire experiment were used for analysis.

For `COc1ccc(CCN(C)CCCN(C(=O)c2ccc([N+](=O)[O-])cc2)c2ccc(OC)c(OC)c2)cc1OC` [Compound I, (N-[3,4-dimethoxy-phenyl]-N-3-[N'-2-(3,4-dimethoxyphenyl)-ethyl-N'-methylamino]propyl)-N'-4-nitrobenzamide], the APA (0.3 µM, action potential amplitude) was 128 ± 1 mV, the APD30 (0.3 µM, action potential duration at 30 % of the repolarization) was 114 ± 4 ms and the APD90 (0.3 µM, action potential duration at 90 % of the repolarization) was 206 ± 8 ms. The APA (1 µM) was 127 ± 1 mV, the APD30 (1 µM) was 111 ± 5 ms and the APD90 (1 µM) was 222 ± 7 ms. It also gave an APA (3 µM) of 126 ± 1 mV, an APD30 (3 µM) of 103 ± 6 ms and an APD90 (3 µM) of 218 ± 6 ms. The APA (10 µM) was 125 ± 1 mV, the APD30 (10 µM) was 84 ± 5 ms and the APD90 (10 µM) was 198 ± 6 ms.
